Measurements reported in the supplement of paper PMC10689618.
Counter-ions that a name gives are not always drawn. This is one part of the list. Repeats are few or missing, and single values can be far off.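 Primary human fetal astrocytes engulfed labelled rat cortical synaptosomes, measured as a red/green ratio corrected for calcein live-cell signal and scaled to the plate median. Toxicity meant calcein falling over 30%; decreased phagocytosis meant below 70% of median above 5 µM.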

What was measured:
Conditions in all cases: 24 h
[1] = system: Human fetal astrocytes; test: loss of total cells relative to no-compound high-control median (toxicity); higher = more toxic (fewer cells)
[2] = system: Human fetal astrocytes; test: synaptosome phagocytosis (pHrodo/calcein intensity ratio) relative to plate median of data wells; higher = more phagocytosis
[3] = system: Human fetal astrocytes; test: loss of total cells relative to no-compound high-control median (toxicity); higher = more toxic (fewer cells); remark: listed apart in the source
[4] = system: Human fetal astrocytes; test: synaptosome phagocytosis (pHrodo/calcein intensity ratio) relative to plate median of data wells; higher = more phagocytosis; remark: listed apart in the source

| SMILES | loss of total cells ([1]; 1.39 µM) [%] | loss of total cells ([1]; 2.78 µM) [%] | loss of total cells ([1]; 5.56 µM) [%] | loss of total cells ([1]; 11.11 µM) [%] | loss of total cells ([1]; 22.22 µM) [%] | synaptosome phagocytosis ([2]; 1.39 µM) [%] | synaptosome phagocytosis ([2]; 2.78 µM) [%] | synaptosome phagocytosis ([2]; 5.56 µM) [%] | synaptosome phagocytosis ([2]; 11.11 µM) [%] | synaptosome phagocytosis ([2]; 22.22 µM) [%] | loss of total cells ([3]; 1.39 µM) [%] | loss of total cells ([3]; 2.78 µM) [%] | loss of total cells ([3]; 5.56 µM) [%] | loss of total cells ([3]; 11.11 µM) [%] | loss of total cells ([3]; 22.22 µM) [%] | synaptosome phagocytosis ([4]; 1.39 µM) [%] | synaptosome phagocytosis ([4]; 2.78 µM) [%] | synaptosome phagocytosis ([4]; 5.56 µM) [%] | synaptosome phagocytosis ([4]; 11.11 µM) [%] | synaptosome phagocytosis ([4]; 22.22 µM) [%] |
| --- | --- | --- | --- | --- | --- | --- | --- | --- | --- | --- | --- | --- | --- | --- | --- | --- | --- | --- | --- | --- |
| CC1=CCc2c(cc3oc(C)cc(=O)c3c2O)OC1 | -6.9 | -9.3 | -0.8 | 39.4 | -12.2 | 144 | 111 | 100 | 119 | 78.7 |  |  |  |  |  |  |  |  |  |  |
| CN1CCC(=C2c3ccccc3CCc3sccc32)CC1 | -16.1 | -46 | 3.1 | 13.4 | 14.6 | 107 | 101 | 101 | 95.3 | 114 |  |  |  |  |  |  |  |  |  |  |
| CC(N/C(=N\C#N)Nc1ccncc1)C(C)(C)C (stereo not given) [Pinacidil] |  |  |  |  |  |  |  |  |  |  | -0.9 | -23.7 | -17.4 | -11.1 | -39.5 | 107 | 99.2 | 109 | 110 | 127 |
| CCOC(=O)C1=C[C@]2(CC)CCCN3CCc4c(n1c1ccccc41)[C@@H]32 [Vinpocetine] |  |  |  |  |  |  |  |  |  |  | -14 | -30.2 | 0 | -30.3 | -38.7 | 101 | 96.8 | 126 | 99.6 | 100 |
| CN(C)S(=O)(=O)c1ccc2c(c1)/C(=C/c1cc3c([nH]1)CCCC3)C(=O)N2 |  |  |  |  |  |  |  |  |  |  | -27 | -9.9 | -1.7 | 22.6 | -2.5 | 64.1 | 61.2 | 45.2 | 63.4 | 80.2 |
| CCN(CC)CCOC(=O)c1cc(Cl)c(N)cc1OC [SDZ-205,557 hydrochloride] |  |  |  |  |  |  |  |  |  |  | -19.6 | -15.3 | 5.1 | -4.2 | -10.7 | 107 | 103 | 127 | 92.4 | 104 |
| NC(=O)c1cccc(N)c1 [3-aminobenzamide] |  |  |  |  |  |  |  |  |  |  | -8.1 | -14.1 | -2.3 | -12.1 | 9.4 | 131 | 105 | 115 | 122 | 133 |
| O=C(O)CP(=O)(O)O [Phosphonoacetic acid] |  |  |  |  |  |  |  |  |  |  | -14.6 | -30.2 | -5.6 | 4.2 | -14 | 113 | 110 | 116 | 96.9 | 91.3 |
| C[N+]1(CCCCC[N+]2(C)CCCC2)CCCC1 [Pentolinium di[L(+)-tartrate]] |  |  |  |  |  |  |  |  |  |  | -22.3 | -19.5 | -2.3 | -6.7 | -4.7 | 88.4 | 84.2 | 93.8 | 104 | 109 |
| Fc1ccc(C(OCCCc2cnc[nH]2)c2ccc(F)cc2)cc1 |  |  |  |  |  |  |  |  |  |  | -31.8 | 14 | 14.6 | 13.3 | 17.8 | 100 | 94.9 | 109 | 56.6 | 75.2 |
| CC(=O)[C@@]1(O)CC[C@H]2[C@@H]3CCC4=CC(=O)CC[C@]4(C)[C@H]3CC[C@@]21C [17alpha-hydroxyprogesterone] |  |  |  |  |  |  |  |  |  |  | -1.3 | -29.9 | -5.8 | -22.9 | -11.2 | 118 | 119 | 94.1 | 105 | 127 |
| CC1=C(/C=C/C(C)=C/C=C/C(C)=C/C=C/C=C(C)/C=C/C=C(C)/C=C/C2=C(C)C(=O)[C@@H](O)CC2(C)C)C(C)(C)C[C@H](O)C1=O [Astaxanthin] |  |  |  |  |  |  |  |  |  |  | -5.1 | -8.4 | -32.7 | -15.7 | -7.9 | 115 | 104 | 101 | 95.2 | 96.7 |
| N#C/C(=C\c1ccc(O)c(O)c1)C(=O)NCc1ccccc1 [Tyrphostin AG 490] |  |  |  |  |  |  |  |  |  |  | -10.9 | -5.7 | 11.2 | -8.8 | -27.2 | 105 | 124 | 139 | 110 | 105 |
| CN(C)CCCCSC(=N)N |  |  |  |  |  |  |  |  |  |  | -30.7 | -32 | -33.1 | -14.2 | -24.7 | 100 | 119 | 92.4 | 90.8 | 93.9 |
| C/C=C1\C(=O)C[C@H]2[C@@H]3CCC4=CC(=O)CC[C@]4(C)[C@H]3CC[C@]12C [(Z)-Gugglesterone] |  |  |  |  |  |  |  |  |  |  | 9.6 | -17.9 | -14 | 1.3 | 4 | 132 | 118 | 97.6 | 95.3 | 123 |
| O=c1cc(-c2ccccc2)[nH]c2nc(Cl)ccc12 [7-Chloro-4-hydroxy-2-phenyl-1,8-naphthyridine] |  |  |  |  |  |  |  |  |  |  | -7 | -5.4 | -4.1 | -11.2 | 3.4 | 107 | 114 | 99.9 | 122 | 149 |
| COCc1nc2c([nH]1)c(=O)n(C)c(=O)n2CC(C)C [8-Methoxymethyl-3-isobutyl-1-methylxanthine] |  |  |  |  |  |  |  |  |  |  | -19.4 | 17.6 | -6.1 | 19 | 2.8 | 122 | 128 | 128 | 126 | 99.5 |
| Nc1nc2c(ncn2COC(CO)CO)c(=O)[nH]1 [Ganciclovir] |  |  |  |  |  |  |  |  |  |  | 6.3 | -6 | 14.8 | -3.1 | 6.4 | 119 | 121 | 94.6 | 104 | 102 |
| NCC(O)(CS(=O)(=O)O)c1ccc(Cl)cc1 (stereo not given) [2-Hydroxysaclofen] |  |  |  |  |  |  |  |  |  |  | -19.4 | -1.8 | -6.9 | 8.5 | 19.2 | 71.3 | 72.9 | 83.8 | 96.2 | 99.5 |
| CCCn1c(=O)c2[nH]c(-c3ccc(S(=O)(=O)O)cc3)nc2n(CCC)c1=O [1,3-Dipropyl-8-p-sulfophenylxanthine] |  |  |  |  |  |  |  |  |  |  | -4.8 | -12 | -7.8 | 1.3 | -4.1 | 85.7 | 95.1 | 114 | 115 | 124 |
| CNC1(C)C2CCC(C2)C1(C)C (stereo not given) [Mecamylamine hydrochloride] |  |  |  |  |  |  |  |  |  |  | -15.6 | -15.8 | 16.4 | -1 | -14 | 112 | 114 | 87.2 | 118 | 104 |

Retrieved by structure from the list above:

| SMILES | loss of total cells ([1]; 1.39 µM) [%] | loss of total cells ([1]; 2.78 µM) [%] | loss of total cells ([1]; 5.56 µM) [%] | loss of total cells ([1]; 11.11 µM) [%] | loss of total cells ([1]; 22.22 µM) [%] | synaptosome phagocytosis ([2]; 1.39 µM) [%] | synaptosome phagocytosis ([2]; 2.78 µM) [%] | synaptosome phagocytosis ([2]; 5.56 µM) [%] | synaptosome phagocytosis ([2]; 11.11 µM) [%] | synaptosome phagocytosis ([2]; 22.22 µM) [%] | loss of total cells ([3]; 1.39 µM) [%] | loss of total cells ([3]; 2.78 µM) [%] | loss of total cells ([3]; 5.56 µM) [%] | loss of total cells ([3]; 11.11 µM) [%] | loss of total cells ([3]; 22.22 µM) [%] | synaptosome phagocytosis ([4]; 1.39 µM) [%] | synaptosome phagocytosis ([4]; 2.78 µM) [%] | synaptosome phagocytosis ([4]; 5.56 µM) [%] | synaptosome phagocytosis ([4]; 11.11 µM) [%] | synaptosome phagocytosis ([4]; 22.22 µM) [%] |
| --- | --- | --- | --- | --- | --- | --- | --- | --- | --- | --- | --- | --- | --- | --- | --- | --- | --- | --- | --- | --- |
| CC1=CCc2c(cc3oc(C)cc(=O)c3c2O)OC1 | -6.9 | -9.3 | -0.8 | 39.4 | -12.2 | 144 | 111 | 100 | 119 | 78.7 |  |  |  |  |  |  |  |  |  |  |
| CC1=C(/C=C/C(C)=C/C=C/C(C)=C/C=C/C=C(C)/C=C/C=C(C)/C=C/C2=C(C)C(=O)[C@@H](O)CC2(C)C)C(C)(C)C[C@H](O)C1=O [Astaxanthin] |  |  |  |  |  |  |  |  |  |  | -5.1 | -8.4 | -32.7 | -15.7 | -7.9 | 115 | 104 | 101 | 95.2 | 96.7 |
